From article PMC10547647 come the findings set out here.

Protein sequences, listed by entry. Tags and fused reporters are not part of them.
UniProt Q9GZP8: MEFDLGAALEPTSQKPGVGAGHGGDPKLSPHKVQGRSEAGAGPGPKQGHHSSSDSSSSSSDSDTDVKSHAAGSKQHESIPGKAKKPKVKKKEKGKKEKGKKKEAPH
UniProt P06748: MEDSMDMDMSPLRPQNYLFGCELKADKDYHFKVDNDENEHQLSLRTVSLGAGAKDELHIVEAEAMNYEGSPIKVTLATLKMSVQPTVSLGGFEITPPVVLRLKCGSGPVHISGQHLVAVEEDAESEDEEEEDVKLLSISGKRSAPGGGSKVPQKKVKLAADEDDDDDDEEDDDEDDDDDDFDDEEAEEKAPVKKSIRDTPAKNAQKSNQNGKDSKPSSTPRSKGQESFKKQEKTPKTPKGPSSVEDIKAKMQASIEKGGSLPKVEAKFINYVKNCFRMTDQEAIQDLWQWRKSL

These are yes or no findings as the source states them, for the method shown. Binding seen in cells or lysates may run through a third protein. A yes stands for co-enrichment or nearness to the bait. Other partners may have been found.

For assay [1], the target named is Immortalization-upregulated protein (IMUP), endogenous (human (endogenous in BxPC-3)) (UniProt Q9GZP8). As to the kind of experiment: affinity purification with mass spectrometry; endogenous IMUP; IP with anti-IMUP agarose, SDS-PAGE, candidate bands cut and identified by LC/MS.
Assay [2] has as its target GFP-tagged IMUP (immortalization-upregulated protein) (UniProt Q9GZP8). As to the kind of experiment: affinity purification with mass spectrometry; GFP-tagged IMUP overexpressed; IP with GFP-Trap Magnetic Agarose, SDS-PAGE, candidate bands cut and identified by LC/MS.

For “Nucleophosmin (NPM1), endogenous (from UniProt P06748 1-294)”, the binding result in assay [1] and in assay [2] was “binds” each time.
